Where a name gives a salt, the structure may show the parent alone. The list shows a part of the results. Repeats are few or missing, and single values can be far off.
These molecules were tested on Echinococcus multilocularis metacestodes (assay: vesicle damage (PGI release) relative to positive control DB1127 at 20 µM, DMSO subtracted; higher = more parasite damage). Conditions: treatment time 5 days.
Experimental: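 In vitro-cultured E. multilocularis metacestode vesicles (isolate H95, 2-4 mm) were treated in singlets with each drug of the Selleck FDA-approved library (426 drugs) at 20 µM for 5 days at 37°C. Damage was read as phosphoglucose isomerase (PGI) release into the medium, measured as the increase in absorbance at 340 nm. Activity was expressed as % of the positive control DB1127 (20 µM) after subtracting the DMSO control; a hit was defined as ≥50% of DB1127.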
In the case of `CC1(C)O[C@@H]2[C@@H](CO[C@@]3(COS(N)(=O)=O)OC(C)(C)O[C@@H]23)O1` [Topiramate], the vesicle damage is reported as -0.345%. In the case of `Cc1ccc(O)c([C@H](CCN(C(C)C)C(C)C)c2ccccc2)c1` [Tolterodine tartrate], the vesicle damage is reported as 0.121%. In the case of `C[C@H]1COc2c(N3CCN(C)CC3)c(F)cc3c(=O)c(C(=O)O)cn1c23` [Levofloxacin], the vesicle damage is reported as -6.02%. For `CNC(=C[N+](=O)[O-])NCCSCc1csc(CN(C)C)n1` [Nizatidine], the vesicle damage was -12.1%. For `CCCC(=O)[O-].[Na+]` [Sodium butyrate], the vesicle damage was -9.66%. For `CC(C[N+](C)(C)C)OC(N)=O` (stereo not given) [Bethanechol chloride], the vesicle damage was 4.27%. Molecule `CC1(C)S[C@@H]2[C@H](NC(=O)[C@H](N)c3ccc(O)cc3)C(=O)N2[C@H]1C(=O)O` [Amoxicillin] has a vesicle damage of 2.73%. In the case of `OCCN(CCO)c1nc(N2CCCCC2)c2nc(N(CCO)CCO)nc(N3CCCCC3)c2n1` [Dipyridamole], the vesicle damage is reported as -10.2%. `CC(=O)Oc1ccccc1C(=O)Nc1ncc([N+](=O)[O-])s1` [Nitazoxanide] was tested, and the vesicle damage was 61.7%. In the case of `CC(C)C[C@H](NC(=O)[C@H](Cc1ccccc1)NC(=O)c1cnccn1)B(O)O` [Bortezomib], the vesicle damage is reported as 141%. `N#Cc1ccc(C(c2ccc(C#N)cc2)n2cncn2)cc1` [Letrozole] was tested, and the vesicle damage was -1.47%. `CO/N=C(\C(=O)N[C@@H]1C(=O)N2C(C(=O)OCOC(=O)C(C)(C)C)=C(/C=C\c3scnc3C)CS[C@H]12)c1csc(N)n1` [Cefditoren pivoxil] showed a vesicle damage of -13.1%. Work on `Nc1cc(N2CCCCC2)nc(N)[n+]1[O-]` [Minoxidil] yielded a vesicle damage of 2.86%. Molecule `CC(=O)OCC(=O)[C@@]1(O)CC[C@H]2[C@@H]3CCC4=CC(=O)C=C[C@]4(C)[C@H]3[C@@H](O)C[C@@]21C` [Prednisolone acetate] has a vesicle damage of 2.52%. In the case of `CC1COc2c(N3CCN(C)CC3)c(F)cc3c(=O)c(C(=O)O)cn1c23` (stereo not given) [Ofloxacin], the vesicle damage is reported as -3.49%. `CN1[C@@H]2CC[C@H]1C[C@@H](OC(=O)c1c[nH]c3ccccc13)C2` [Tropisetron hydrochloride] gave a vesicle damage of -12.6%. In the case of `Cc1[nH]c(=O)c(C#N)cc1-c1ccncc1` [Milrinone], the vesicle damage is reported as 1.79%. For `C[C@H](CCC(=O)O)[C@H]1CC[C@H]2[C@@H]3[C@@H](O)C[C@@H]4C[C@H](O)CC[C@]4(C)[C@H]3CC[C@]12C` [Ursodiol], the vesicle damage was -3.52%. `CC(C(=O)O)c1cccc(C(=O)c2ccccc2)c1` (stereo not given) [Ketoprofen] was tested, and the vesicle damage was -2.46%. Work on `COCCOC(=O)C1=C(C)NC(C)=C(C(=O)OC/C=C/c2ccccc2)C1c1cccc([N+](=O)[O-])c1` (stereo not given) [Cilnidipine] yielded a vesicle damage of -6.38%. `CCCCN1CCCCC1C(=O)Nc1c(C)cccc1C` (stereo not given) [Bupivacaine hydrochloride] showed a vesicle damage of 5.22%. For `CN(C)CC/C=C1/c2ccccc2COc2ccc(CC(=O)O)cc21` [Olopatadine hydrochloride], the vesicle damage was -0.381%. For `Nc1nc(F)nc2c1ncn2[C@@H]1O[C@H](CO)[C@@H](O)[C@@H]1O` [Fludarabine], the vesicle damage was -4.18%. Molecule `O=c1[nH]cnc2[nH]ncc12` [Allopurinol sodium] has a vesicle damage of -1.08%. `Cn1nnc2c(C(N)=O)ncn2c1=O` [Methazolastone] gave a vesicle damage of -1.73%. With `Clc1ccccc1C(c1ccccc1)(c1ccccc1)n1ccnc1` [Clotrimazole] the vesicle damage was 0.909%. `CO[C@H]1C[C@@H]2CC[C@@H](C)[C@@](O)(O2)C(=O)C(=O)N2CCCC[C@H]2C(=O)O[C@H]([C@H](C)C[C@@H]2CC[C@@H](OC(=O)C(C)(CO)CO)[C@H](OC)C2)CC(=O)[C@H](C)/C=C(\C)[C@@H](O)[C@@H](OC)C(=O)[C@H](C)C[C@H](C)/C=C/C=C/C=C/1C` [Temsirolimus] showed a vesicle damage of -2.21%. `CC(C(=O)O)c1cccc(Oc2ccccc2)c1` (stereo not given) [Fenoprofen calcium] showed a vesicle damage of 4.35%. `CCCc1nn(C)c2c(=O)[nH]c(-c3cc(S(=O)(=O)N4CCN(C)CC4)ccc3OCC)nc12` [Sildenafil citrate] gave a vesicle damage of -4.96%. Work on `CC(NCCc1ccc(O)cc1)C(O)c1ccc(O)cc1` (stereo not given) [Ritodrine hydrochloride] yielded a vesicle damage of -0.86%. `COC(=O)C1=C(C)NC(C)=C(C(=O)OCC(C)C)C1c1ccccc1[N+](=O)[O-]` (stereo not given) [Nisoldipine] gave a vesicle damage of -9.37%. In the case of `CN(CCOc1ccc(CC2SC(=O)NC2=O)cc1)c1ccccn1` (stereo not given) [Rosiglitazone], the vesicle damage is reported as -1.77%. In the case of `CCN[C@H]1C[C@H](C)S(=O)(=O)c2sc(S(N)(=O)=O)cc21` [Dorzolamide HCL], the vesicle damage is reported as -1.6%. With `CO[C@H]1/C=C/O[C@@]2(C)Oc3c(C)c(O)c4c(O)c(c(/C=N/N5CCN(C6CCCC6)CC5)c(O)c4c3C2=O)NC(=O)/C(C)=C\C=C\[C@H](C)[C@H](O)[C@@H](C)[C@@H](O)[C@@H](C)[C@H](OC(C)=O)[C@@H]1C` [Rifapentine] the vesicle damage was 2.18%. With `CC(C)OC(=O)C(C)(C)Oc1ccc(C(=O)c2ccc(Cl)cc2)cc1` [Fenofibrate] the vesicle damage was -15.1%. In the case of `CCN(CC)CCOc1ccc(C(=C(Cl)c2ccccc2)c2ccccc2)cc1` [Clomifene citrate], the vesicle damage is reported as -4.57%. For `COC(=O)N[C@H](C(=O)N[C@@H](Cc1ccccc1)[C@@H](O)CN(Cc1ccc(-c2ccccn2)cc1)NC(=O)[C@@H](NC(=O)OC)C(C)(C)C)C(C)(C)C` [Atazanavir sulfate], the vesicle damage was 2.79%. For `CNCCC(Oc1ccc(C(F)(F)F)cc1)c1ccccc1` (stereo not given) [Fluoxetine hydrochloride], the vesicle damage was 2.71%. Work on `COc1ccc(-c2ccc3cc(C(=O)O)ccc3c2)cc1C12CC3CC(CC(C3)C1)C2` [Adapalene] yielded a vesicle damage of -0.608%. `Nc1ccn([C@@H]2O[C@H](CO)[C@@H](O)C2(F)F)c(=O)n1` [Gemcitabine Hydrochloride] was tested, and the vesicle damage was 0.979%.

Source: the supplement of paper PMC4256282, “Profound Activity of the Anti-cancer Drug Bortezomib against Echinococcus multilocularis Metacestodes Identifies the Proteasome as a Novel Drug Target for Cestodes” (PLoS Neglected Tropical Diseases, 2014)
